{"source": "PubChem BioAssay AID504467", "about": "(National Center for Advancing Translational Sciences (NCATS), 2011)", "note": "About 7,700 (2.3%) of roughly 330,000 compounds were called active. Inconclusive means that the source gave no clear call. Such entries were picked first, then a sample of the others. Calls come from the whole dose curve; as a rule, active = well fitted inhibition curve with a large enough effect; inconclusive = small, poorly fitted or top-dose-only effect, or effect the other way; inactive = flat fitted curve, though single readings scatter. Where the call is inconclusive, the potency comes from a doubtful curve fit.", "data": [{"assay": "qHTS screen for small molecules that inhibit ELG1-dependent DNA repair in human embryonic kidney (HEK293T) cells expressing luciferase-tagged ELG1; note: nearly all actives have a fitted effect of over 55% in size; note: potency is the fitted concentration of half-maximal effect", "conditions": "HEK293T ELG1-luciferase reporter, luminescence, 16 h, DNA damage induced by 5-fluorouridine; series mostly up to 46.1 µM", "procedure,_shortened": "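5-Fluorouridine DNA damage + compound/DMSO, 2,000 cells/well, 16 h, 37 °C/5% CO2. ONE-Glo, 30 min RT, luminescence. Readout = decrease in reporter signal.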", "values": [{"molecule": "Cc1c2cnn(CC(=O)NCCCN3CC(C)CC(C)C3)c(=O)c2c(C)n1Cc1ccccc1Cl", "note": "(stereo not given)", "Potency": "inactive"}, {"molecule": "O=C(Nc1ncccc1Cl)c1cccc(F)c1", "Potency": "inconclusive: 20.6 µM [activator, single point]"}, {"molecule": "CCN(CC)S(=O)(=O)c1cccc(-c2nnc(SCC(=O)c3cc(C)n(C4CC4)c3C)o2)c1", "Potency": "inconclusive: 14.6 µM [inhibitor, partial curve]"}, {"molecule": "COc1ccc(CCNC(=O)C2CCCN(c3nc4ccccc4s3)C2)cc1OC", "note": "(stereo not given)", "Potency": "active: 18.3 µM"}, {"molecule": "CCOc1ccc(NC(=O)C(c2ccccn2)N(C(=O)CCl)c2ccc(F)cc2)cc1", "note": "(stereo not given)", "Potency": "inconclusive: 13 µM [activator, partial curve, poor fit]"}, {"molecule": "CCOC(=O)CC1CCCCN1C(=O)c1cc(COc2cccc3cnccc23)on1", "note": "(stereo not given)", "Potency": "inconclusive: 1.03 µM [inhibitor, full curve]"}, {"molecule": "Cc1sc2nc(COC(=O)CNC(=O)c3ccc(C(C)(C)C)cc3)[nH]c(=O)c2c1C", "Potency": "inconclusive: 23.1 µM [activator, single point]"}, {"molecule": "CCOC(=O)c1sc(=NC(=O)c2ccc(F)cc2)n(C)c1C", "Potency": "inconclusive: 2.06 µM [activator, full curve]"}, {"molecule": "Cc1ccc(C2CC2c2n[nH]c(=S)n2-c2cccc(C)c2)cc1", "note": "(stereo not given)", "Potency": "inactive"}, {"molecule": "Cn1c(=O)c2cn(-c3ccc4c(c3)OCCO4)cc2n(C)c1=O", "Potency": "inconclusive: 13 µM [activator, partial curve]"}, {"molecule": "CSc1nc(C)cc(C)c1S(=O)(=O)c1ccccc1C", "Potency": "inactive"}, {"molecule": "CN1CCN(c2sc(S(C)(=O)=O)nc2S(=O)(=O)c2ccc(Cl)cc2)CC1", "Potency": "inactive"}, {"molecule": "O=C(O)CCCC(=O)N1N=C(c2ccccc2)CC1c1ccc2nccnc2c1", "note": "(stereo not given)", "Potency": "inconclusive: 16.4 µM [activator, single point]"}, {"molecule": "COC(=O)CNC(=O)CNC(=O)c1nn(-c2ccc(OC)c(Cl)c2)c(=O)c2ccccc12", "Potency": "inactive"}, {"molecule": "CC(C#Cc1ccc2c(c1)COc1c3ccccc3nn1-2)OC(C)(C)C", "note": "(stereo not given)", "Potency": "inconclusive: 6.31 µM [activator, partial curve]"}, {"molecule": "NC(=S)NN=C1c2ccccc2-c2ccccc21", "Potency": "inconclusive: 18.3 µM [inhibitor, single point]"}, {"molecule": "COc1ccc(/C=C2\\N=C3CCCN3C2=O)cc1", "Potency": "inconclusive: 20.6 µM [activator, partial curve]"}, {"molecule": "CCCCN1C(=O)NC(NS(=O)(=O)c2ccc(N)cc2)(C(F)(F)F)C1=O", "note": "(stereo not given)", "Potency": "inactive"}, {"molecule": "CC(C)(C)C(=O)NC(=S)NNC(=O)c1ccncc1", "Potency": "inactive"}, {"molecule": "Cc1cccc(-c2nc3c(c(SCC(=O)N4CCOCC4)n2)CCCC3)c1", "Potency": "inconclusive: 20.6 µM [inhibitor, single point]"}]}]}
